## Screening data

From PubChem BioAssay record AID602441 (NCATS, 2012).

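Counter-screen of TSHR antagonist hits in parent HEK293 cells without the receptor, reading intracellular cAMP by an HTRF antibody competition signal; incubation time not stated here.
Each compound was titrated in a series from about 0.0037 to 57 µM.
The number is a fitted AC50 potency for signal inhibition; lower values mean more potent inhibition.
Calls come from curve class and fit quality: full, well-fitted curves score as active, while partial or poorly fitted curves are scored inconclusive.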

Values are in nM.
Every entry below has the call inconclusive.
These entries are mostly ones the record files as inconclusive; other results of the assay are not listed here.
A potency from a partial, single-point or poor curve is only a rough figure.
Activity scores are not listed here.

Result for CCCc1nnc(NC(=O)c2nc(S(=O)(=O)Cc3ccc(C)cc3)ncc2Cl)s1 was potency 37932 nM (inhibitor, partial curve, poor fit). CCOc1ccccc1N1CCN(C(=O)CCCN2C(=O)c3cccc4cccc(c34)C2=O)CC1 read potency 30131 nM (inhibitor, partial curve, poor fit). Result for COc1ccc(-c2cc(-c3nc4ccccn4c3NCc3ccccc3)ccc2OC)cc1 was potency 6012 nM (inhibitor, partial curve, poor fit). For Cc1ccc2nc(-c3ccc(NC(=O)c4cccnc4)cc3)oc2c1 the result was potency 37932 nM (inhibitor, partial curve, poor fit). COc1cccc(N2CCN(c3ncnc4c3cnn4-c3ccc(C)cc3C)CC2)c1 gave potency 3793 nM (inhibitor, partial curve, poor fit). CC(C)(C)OC(=O)NCCCCCc1cn([C@@H](CO)C(=O)NCCCCCCCCCCC(=O)N2CCN(C(=O)OC(C)(C)C)CC2)nn1 read potency 37932 nM (inhibitor, partial curve, poor fit). CC1=C/C(=N\OS(=O)(=O)c2ccccc2)C(C)=CC1=O gave potency 301313 nM (inhibitor, partial curve, poor fit).

Cc1ccc(NC(=O)c2cnc(N3CCN(c4ccccn4)CC3)c3ccccc23)c(Br)c1 read potency 19011 nM (inhibitor, partial curve, poor fit). Result for Cc1cc2nc(-c3ccc(NC(=O)c4cccnc4)cc3)oc2cc1C was potency 3013 nM (inhibitor, partial curve, poor fit). COc1ccc(CCNC2=C(Cl)C(=O)N(CCc3ccc(OC)c(OC)c3)C2=O)cc1OC read potency 13459 nM (inhibitor, partial curve, poor fit). Result for COc1cc2sc3ccc(-c4ccc(CN5CCOCC5)cc4)cc3c(=O)c2cc1OC was potency 33807 nM (inhibitor, partial curve, poor fit). For Cc1ccc(NC(=O)Nc2ccc3c(c2)N(C)C(=O)CS3)cc1C the result was potency 33807 nM (inhibitor, partial curve, poor fit). For CS(=O)(=O)c1ccc(C(=O)OCC(=O)NCc2cccs2)cc1[N+](=O)[O-] the result was potency 37932 nM (inhibitor, partial curve, poor fit). COc1ccc(CC(=O)Nc2cccc(-c3nnc(-c4cccc(C)c4)o3)c2)cc1OC gave potency 8492 nM (inhibitor, partial curve, poor fit).

For CCN(c1ccccc1)S(=O)(=O)c1ccc(C(=O)N(CCCN(C)C)c2nc3cc4c(cc3s2)OCO4)cc1 the result was potency 4776 nM (inhibitor, partial curve, poor fit). For Cc1c(C(=O)Nc2nccs2)sc2nc(-c3cccs3)cc(C(F)(F)F)c12 the result was potency 11995 nM (inhibitor, partial curve, poor fit). Result for Cc1ccc(CS(=O)(=O)c2ncc(Cl)c(C(=O)Nc3nnc(C(C)C)s3)n2)cc1 was potency 16944 nM (inhibitor, partial curve, poor fit). Result for Cc1nc2ccccc2n1CC(=O)N/N=C\C=C\c1ccccc1 was potency 13459 nM (inhibitor, partial curve, poor fit). Cc1cc(C(=O)CSc2nnc(-c3ccccc3F)o2)c(C)n1Cc1cccs1 read potency 23934 nM (inhibitor, partial curve, poor fit). Result for O=C(O)c1ccc(NC2=C/C(=N/S(=O)(=O)c3ccccc3)c3ccccc3C2=O)cc1 was potency 5358 nM (inhibitor, partial curve, poor fit). O=C1C=CC(=O)N1CCCCCCN1C(=O)C=CC1=O read potency 37932 nM (inhibitor, partial curve, poor fit).

With Cc1ccc(-n2[nH]c(C)c(/C=N/Nc3ccc([N+](=O)[O-])cc3[N+](=O)[O-])c2=O)cc1 the assay gave potency 19011 nM (inhibitor, partial curve, poor fit). Result for Cc1nn(-c2ccccc2)c(Cl)c1CN(C(=O)CCl)c1ccc(Cl)cc1 was potency 23934 nM (inhibitor, partial curve, poor fit). O=S(=O)(C/C(=C/CO)S(=O)(=O)c1ccccc1)c1ccccc1 gave potency 30131 nM (inhibitor, partial curve, poor fit). For Cc1c(C(=O)Nc2ccc3c(c2)OCCO3)sc2nc(-c3ccccc3)cn12 the result was potency 3013 nM (inhibitor, partial curve, poor fit). For CCCCN1C(=O)c2ccc(C(=O)Nc3ccc(C)c(S(=O)(=O)N(C)C)c3)cc2C1=O the result was potency 21331 nM (inhibitor, partial curve, poor fit). CSc1nnc(NC(=O)c2nc(S(=O)(=O)Cc3ccccc3F)ncc2Cl)s1 read potency 7569 nM (inhibitor, partial curve, poor fit). CN(C)S(=O)(=O)c1ccc(C(=O)Nc2nc(-c3cccs3)cs2)cc1 read potency 1901 nM (inhibitor, partial curve, poor fit).

Cc1ccc(S(=O)(=O)/N=C2\C=C(Nc3cccc(C(=O)O)c3)C(=O)c3ccccc32)cc1 read potency 30131 nM (inhibitor, partial curve, poor fit). O=C(Nc1ccc(Cl)c(S(=O)(=O)N2CCOCC2)c1)c1ccc(OCC2CCCO2)cc1 (centres undefined) gave potency 13459 nM (inhibitor, partial curve, poor fit). For CC(C)N(Cc1ccccc1)C(=O)COC(=O)c1cnc(Cl)c(Cl)c1 the result was potency 21331 nM (inhibitor, partial curve, poor fit). CN1CCN(C2=CC3=CC(=C(C#N)C#N)CCC3CC2)CC1 (centres undefined) read potency 10690 nM (inhibitor, partial curve, poor fit). O=C1C(Cl)=C(Nc2ccc(O)cc2)C(=O)c2ccccc21 gave potency 151013 nM (inhibitor, partial curve, poor fit). Result for O=C(O)c1ccc(NC2=C(Cl)C(=O)c3ccccc3C2=O)cc1 was potency 23934 nM (inhibitor, partial curve, poor fit). With COc1cccc(NC(=O)Nc2nc(-c3ccc(OC)c(OC)c3)cs2)c1 the assay gave potency 5358 nM (inhibitor, partial curve, poor fit).

Result for O=C(COC(=O)c1ccccc1C(=O)c1ccc(Cl)c([N+](=O)[O-])c1)NC1CCCCCC1 was potency 19011 nM (inhibitor, partial curve, poor fit). CCCc1nnc(NC(=O)c2nc(S(=O)(=O)Cc3cccc(C)c3)ncc2Cl)s1 read potency 19011 nM (inhibitor, partial curve, poor fit). With Cc1ccccc1C(=O)N1CCN(c2ccc(NC(=S)NC(=O)c3ccco3)cc2)CC1 the assay gave potency 26854 nM (inhibitor, partial curve, poor fit).

The last 3 entries again:

Result for O=C(COC(=O)c1ccccc1C(=O)c1ccc(Cl)c([N+](=O)[O-])c1)NC1CCCCCC1 was potency 19011 nM (inhibitor, partial curve, poor fit).
Result for CCCc1nnc(NC(=O)c2nc(S(=O)(=O)Cc3cccc(C)c3)ncc2Cl)s1 was potency 19011 nM (inhibitor, partial curve, poor fit).
Result for Cc1ccccc1C(=O)N1CCN(c2ccc(NC(=S)NC(=O)c3ccco3)cc2)CC1 was potency 26854 nM (inhibitor, partial curve, poor fit).